From article PMC4742869
Construct, isoform or probe ends are uncertain for at least one entry. Results from cells or extracts need not show a direct contact. Weaker means in comparison with the reference protein, sequence or condition of that experiment. At least one verdict rests on a figure or table, not on a statement of the authors.

By UniProt entry, the sequences of proteins in these tests, tags left out. Where a name states a change or a piece, a line headed by the entry shows the natural chain unless it says otherwise.
UniProt P08151: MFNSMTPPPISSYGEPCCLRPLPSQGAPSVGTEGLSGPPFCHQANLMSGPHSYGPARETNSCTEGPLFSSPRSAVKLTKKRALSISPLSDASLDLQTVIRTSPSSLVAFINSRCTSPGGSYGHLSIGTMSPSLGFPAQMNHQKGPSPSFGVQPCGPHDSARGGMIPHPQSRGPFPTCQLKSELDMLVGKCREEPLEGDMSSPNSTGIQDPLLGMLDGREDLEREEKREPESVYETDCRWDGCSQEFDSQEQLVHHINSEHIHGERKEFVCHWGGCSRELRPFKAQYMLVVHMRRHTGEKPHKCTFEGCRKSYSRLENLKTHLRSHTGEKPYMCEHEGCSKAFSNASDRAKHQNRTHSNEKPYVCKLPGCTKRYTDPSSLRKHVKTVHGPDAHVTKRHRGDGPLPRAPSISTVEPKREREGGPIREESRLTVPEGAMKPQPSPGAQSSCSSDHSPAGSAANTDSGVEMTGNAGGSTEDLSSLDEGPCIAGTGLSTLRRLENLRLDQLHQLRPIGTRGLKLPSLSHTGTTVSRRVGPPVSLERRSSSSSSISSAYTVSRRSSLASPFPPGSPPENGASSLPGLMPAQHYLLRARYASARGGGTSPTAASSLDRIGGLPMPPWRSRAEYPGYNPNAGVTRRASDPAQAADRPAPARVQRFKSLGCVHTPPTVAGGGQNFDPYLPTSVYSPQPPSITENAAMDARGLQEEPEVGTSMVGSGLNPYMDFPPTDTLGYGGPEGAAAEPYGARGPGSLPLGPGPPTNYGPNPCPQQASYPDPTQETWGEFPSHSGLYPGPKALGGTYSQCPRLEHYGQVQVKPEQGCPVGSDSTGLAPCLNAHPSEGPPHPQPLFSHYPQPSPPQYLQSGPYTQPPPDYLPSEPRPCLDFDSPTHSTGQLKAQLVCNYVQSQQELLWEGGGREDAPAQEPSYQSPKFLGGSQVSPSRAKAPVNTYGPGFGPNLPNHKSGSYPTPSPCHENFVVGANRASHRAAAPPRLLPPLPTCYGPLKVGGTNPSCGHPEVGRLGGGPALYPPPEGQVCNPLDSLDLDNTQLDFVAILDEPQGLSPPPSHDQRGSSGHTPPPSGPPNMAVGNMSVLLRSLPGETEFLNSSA

Molecular target: GLI1 (UniProt P08151)
Assay: pull-down (streptavidin beads, western blot)
Conditions: Oligo loading: 10 mM Tris-HCl pH 7.6, 1 M NaCl, 1 mM EDTA, 30 min RT, binding: 30 mM HEPES pH 7.5, 30 mM KCl, 0.5 mM DTT, 5% glycerol, 30 ug nuclear extract, 37 °C 1 h, protein in an extract, single-stranded DNA

Sequence: GACCACCCA [GLI1 consensus oligonucleotide]
- binding result (nuclear lysate from cells treated with NQC (nanoquinacrine), NQC doses not given in the material): binds more weakly
- binding result (untreated cells): binds
